In PubChem BioAssay AID901 (National Center for Advancing Translational Sciences (NCATS), 2007):
The list shows a part of the results. Further columns of the screen follow, without active or inactive calls. Compounds called inactive in the main read-out are mostly missing here. Potencies come from curve fits of mixed quality, noted in brackets.

Experiment: qHTS Assay for Identifying the Cell-Membrane Permeable IMPase Inhibitors
Conditions: CHO-M1 cells, IP1 accumulation, HTRF TR-FRET ratio; measured here: donor channel 620 nm AC50

| Compound | AC50 |
| --- | --- |
| COc1cc(C(=O)Nc2ccc(NC(=O)C(C)C)nc2)cc(OC)c1OC | 6.31 µM [falling, partial curve] |
| COc1cc(C2C3=C(CCCC3=O)Nc3[nH]n(-c4ccccc4)c(=O)c32)ccc1O (stereo unspecified) | 10 µM [falling, partial curve] |
| Cc1ccc(C(=O)N/N=C2\CCc3ccccc32)c(C)c1 | 35.5 µM [falling, single point] |
| COc1ccc2oc(=O)c(C(=O)NCc3ccc4c(c3)OCO4)cc2c1 | 0.2 µM [falling, full curve] |
| O=S(=O)(O)c1nnc2sc3ccccc3n12 | 3.16 µM [falling, single point] |
| COc1ccc(NC(=O)Cn2nnc3sc4c(c3c2=O)CCC(C)C4)c(OC)c1 (stereo unspecified) | 0.00447 µM [rising, full curve] |
| CCN(CC)CCN1C(=O)C(=O)/C(=C(/O)c2ccc(OC)cc2)C1c1ccco1 (stereo unspecified) | 1 µM [rising, partial curve, poor fit] |
| CCN(CC)C(=O)c1ccc2c(c1[N+](=O)[O-])C(=O)c1ccccc1C2=O | 3.55 µM [rising, single point] |
| Cc1occc1C(=O)NC1CCCCCC1 | 0.00316 µM [rising, full curve, poor fit] |
| COc1cccc(Nc2nnc(SCC(=O)N3CC(C)OC(C)C3)s2)c1 (stereo unspecified) | 11.2 µM [falling, partial curve, poor fit] |
| Cc1cc(Oc2ccc(C#N)cc2)nc(NCc2ccccc2)n1 | 0.02 µM [rising, full curve, poor fit] |
| Cc1ccc(NC(=O)CSc2nnc(CN3CCOCC3)n2-c2ccccc2)cc1 | 6.31 µM [falling, single point] |
| CC(C)Cn1c(NCCN(C)C)nc2c1c(=O)[nH]c(=O)n2C | 5.01 µM [falling, partial curve] |
| CC(C)CCNC(=O)C1CCN(c2nnc(-n3cccc3)s2)CC1 | 10 µM [falling, partial curve] |
| Cc1cc(N2CCN(c3ccccc3)CC2)nc(-n2nc(C)cc2C)n1 | 31.6 µM [falling, single point] |
| COc1ccc(NC(=O)CSc2nc3c(cc2C#N)CN(C)CC3)cc1 | 0.2 µM [falling, partial curve] |
| Cc1ccccc1CSc1nnc(-c2cccnc2)n1N | 20 µM [falling, single point] |
| CCC(=O)N1CCc2cc(S(=O)(=O)NC(Cc3ccccc3)C(=O)NC3CCCC3)ccc21 (stereo unspecified) | 1.26 µM [rising, full curve] |
| O=C(Nc1ccc(-c2nc3ccccc3[nH]2)cc1)C1CCCO1 (stereo unspecified) | 0.00501 µM [falling, full curve, poor fit] |
| COc1ccc(C(=S)Nc2ccc(N(C)C)cc2)cc1 | 12.6 µM [falling, partial curve, poor fit] |
| O=C(c1cccc(Br)c1)c1cn(-c2ccccc2)nc1C(=O)c1ccccc1 | 1.58 µM [falling, partial curve] |
| CSc1nc(-c2ccccc2)nc(N2CCCC2)c1C(C)=O | 2.51 µM [falling, partial curve] |

Single entries from above.
`CCC(=O)N1CCc2cc(S(=O)(=O)NC(Cc3ccccc3)C(=O)NC3CCCC3)ccc21` (stereo unspecified) | AC50: 1.26 µM [rising, full curve]
`Cc1ccccc1CSc1nnc(-c2cccnc2)n1N` | AC50: 20 µM [falling, single point]
`CSc1nc(-c2ccccc2)nc(N2CCCC2)c1C(C)=O` | AC50: 2.51 µM [falling, partial curve]

Later entries

| Compound | AC50 |
| --- | --- |
| CC(C)c1ccc(NC(=O)c2cnn3c(C(F)F)cc(-c4ccccc4)nc23)cc1 | 0.01 µM [falling, full curve, poor fit] |
| O=C(CCC(=O)c1ccc(F)cc1)Nc1cccnc1 | 0.2 µM [falling, full curve] |
| COc1cc2nc(=S)n3[nH]c(CCn4nc(C)cc4C)nc3c2cc1OC | 3.16 µM [rising, full curve] |
| O=c1cc(CN2CCN(c3cccc(Cl)c3)CC2)c2cc3c(cc2o1)CCCC3 | 31.6 µM [falling, single point] |
| CCOc1cc(CNCCc2ccc(S(N)(=O)=O)cc2)ccc1OCc1ccc(Cl)cc1 | 0.1 µM [falling, full curve, poor fit] |
| COc1ccc(C(=O)Nc2nnc(Cc3cccs3)s2)cc1OC | 31.6 µM [rising, single point] |
| CCCc1sc(N/N=C/c2ccccn2)nc1-c1ccc(F)cc1 | 31.6 µM [falling, single point] |
| COc1ccccc1N(CC(=O)N1CCC(C)CC1)S(=O)(=O)c1ccc(C)cc1 | 35.5 µM [falling, single point] |
| CC(=O)c1ccc(NC(=S)NNC(=O)c2ccncc2)cc1 | 0.316 µM [falling, partial curve] |
| COc1ccccc1N1CCN(C(c2ccc(Cl)cc2)c2nnc(-c3cccc(F)c3)o2)CC1 (stereo unspecified) | 5.62 µM [falling, partial curve] |
| CCc1nnc(NCC(=O)N2CCc3ccccc32)s1 | 5.01 µM [rising, partial curve, poor fit] |
| COc1ccccc1C(=O)Nc1cc2cc(Br)ccc2oc1=O | 1 µM [falling, full curve] |
| CCOc1c(C)cc2[nH]c(CCC(=O)O)nc2c1C | 2.51 µM [falling, partial curve, poor fit] |
| CCOC(=O)/C(C#N)=C/c1ccc(-c2ccccc2)o1 | 0.0447 µM [falling, full curve] |
| COc1cc(C(=O)NC2CC3CCCC(C2)N3C2CC2)cc(OC)c1OC (stereo unspecified) | 0.158 µM [rising, full curve, poor fit] |
| C=CCO/N=C(/C)c1c(O)c(CC)c(-c2ccccc2)n(-c2ccccc2)c1=O | 0.126 µM [falling, single point] |
| CC(C)OC(=O)c1c(NS(=O)(=O)c2ccccc2)sc2c1CCCC2 | 0.501 µM [falling, full curve, poor fit] |
| CC1CCCN(c2nc(-c3ccccc3O)nc3ccccc23)C1 (stereo unspecified) | 35.5 µM [rising, single point] |
| COC(=O)c1nn(-c2ccccc2)c(Cl)c1/C=N/OC(=O)c1ccc(Cl)c(Cl)c1 | 0.316 µM [falling, full curve, poor fit] |
| CC(=O)Nc1ccc(OC(=O)c2cc3cc(Br)ccc3oc2=O)cc1 | 0.0141 µM [falling, full curve, poor fit] |
| C=CCn1c(CCNC(=O)c2cccs2)nnc1SCC(=O)Nc1cccc(F)c1 | 0.0794 µM [falling, full curve, poor fit] |
| Cc1cc(C)c2cc(CN(CCN3CCCC3)C(=O)Nc3ccc(F)cc3)c(=O)[nH]c2c1 | 5.62 µM [rising, single point] |

| Compound | AC50 |
| --- | --- |
| COC(=O)c1cc2sccc2n1CC(=O)N1CCCc2ccccc21 | 0.398 µM [falling, partial curve, poor fit] |
| COc1ccccc1CNC(=O)C1CCN(Cc2nc(-c3cccc(Cl)c3)oc2C)CC1 | 3.98 µM [falling, partial curve, poor fit] |
| Cc1ccc(C(=O)NCCCNCCCNC(=O)c2ccc(C)nc2)cn1 | 1.58 µM [falling, partial curve] |
| Nc1c(C(=O)Nc2ccc(Cl)cc2F)sc2nc(-c3cccs3)ccc12 | 35.5 µM [rising, single point] |
| COc1ccccc1Nc1nc2c(C)cccc2cc1C#N | 3.16 µM [falling, single point] |
| CCn1c(SCC(=O)N2CCOCC2)nc2oc3c(Cl)cc(Cl)cc3c(=O)c2c1=O | 20 µM [rising, single point] |
| Cc1ccc(-n2c(CNc3ccc(F)cc3)nnc2SCC(=O)N2CCOCC2)cc1 | 10 µM [rising, partial curve] |
| CNc1cc(C)nc(-n2nc(C)cc2C)n1 | 25.1 µM [falling, single point] |
| CCc1ccc(OCC(=O)Nc2ncc3c(n2)CC(C)(C)CC3=O)cc1 | 10 µM [falling, partial curve, poor fit] |
| O=C(Nc1nc(=O)n(C(=O)C2CC2)s1)c1ccccc1 | 3.98 µM [falling, full curve] |
| Cc1ccc2cc(CN(Cc3cccs3)Cc3nnnn3CC3CCCO3)c(=O)[nH]c2c1 (stereo unspecified) | 0.00501 µM [falling, full curve, poor fit] |
| CCOc1ccccc1NC(=O)CN1C(=O)C(=O)c2ccccc21 | 0.00631 µM [rising, full curve] |
| COCCN(C(=O)Cn1nnc2ccccc21)C(C(=O)NC1CCCC1)c1ccc(OC)cc1OC (stereo unspecified) | 3.55 µM [falling, full curve, poor fit] |
| COC(=O)C(O)(CC(=O)Nc1cc(Cl)ccc1Cl)C(F)(F)F (stereo unspecified) | 0.02 µM [falling, full curve, poor fit] |
| COc1ccc(N(CC(=O)Nc2ccc(S(=O)(=O)N3CCOCC3)cc2)S(=O)(=O)c2ccccc2)cc1 | 3.16 µM [falling, partial curve] |
| CCc1cccc(NC(=O)c2ccc(Br)o2)c1 | 6.31 µM [falling, single point] |
| Brc1ccc(-c2nc3ccccc3s2)s1 | 15.8 µM [rising, partial curve] |
| CC(C)(C)c1ccc(OCC(=O)NNC(=O)Cc2cccs2)cc1 | 5.01 µM [rising, partial curve] |
| NCC(O)COCCC12CC3CC(CC(C3)C1)C2 (stereo unspecified) | 20 µM [falling, single point] |
| Cc1nn(C)c(C)c1N1C(=O)c2cccc3c(Br)ccc(c23)C1=O | 15.8 µM [rising, partial curve] |
| Cc1ccc(Cc2nnc3n(-c4cccc(C)c4)nc(C(=O)c4ccccc4)n3c2=O)cc1 | 0.794 µM [falling, full curve] |
| CCNC(=O)CSc1nnc(-c2cccc(S(=O)(=O)N(CC)CC)c2)n1CCc1ccccc1 | 10 µM [rising, partial curve] |
